Values of other authors, collected in article PMC4440699 (MedChemComm, 2014).

What was measured:
[1] = read-out: KD, binding to Zn^++; under the same conditions; cited from earlier work
[2] = tested on: MV4-11 leukemia cells; settings: read-out: IC50 against MV4-11 leukemia cells in vitro; cited from earlier work

## O=C(CCCCCCC(=O)Nc1ccccc1)NO [SAHA, suberanilohydroxamic acid]
[1]
  Kd: 2500 µM
[2]
  IC50: 0.7 µM
